PubChem BioAssay AID1487 (National Center for Advancing Translational Sciences (NCATS), 2009)
Some of the results follow. Shown are side measurements of this screen, not its main read-out; they come without a call. Compounds called inactive in the main read-out are mostly missing here. Words in brackets tell the shape of the fitted curve; partial curves, single points and poor fits give uncertain potencies.

Assay: qHTS Assay for Modulators of Lamin A Splicing
Conditions: HeLa LMNA splicing GFP/RFP minigene ratio, 48 h
Method in brief: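 S3 HeLa stable clones carrying a lamin A-EGFP splicing minigene plus DsRed2 were seeded at 600 cells/well in Opti-MEM with 2% FBS, pin-dosed and incubated 48 h at 37°C. Acumen cytometry (488 nm) gave the GFP/RFP total-intensity ratio.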

[1] = measured here: GFP splicing reporter channel
[2] = measured here: RFP viability control channel

Cc1ccc(OCC(=O)N/N=C/c2c[nH]c3ccccc23)c([N+](=O)[O-])c1
AC50 [1]: 7.08 µM [rising, partial curve]
AC50 [2]: 7.08 µM [rising, partial curve]

COCCN(CC(=O)Nc1cccc(C)c1)S(=O)(=O)c1ccc(S(=O)(=O)N2CCCC2)cc1
AC50 [1]: 3.98 µM [rising, partial curve]

CCC(COC(=O)Nc1cccc(C)c1)NC(=O)OCC(C)C (configuration not stated)
AC50 [1]: 14.1 µM [rising, partial curve, poor fit]
AC50 [2]: 35.5 µM [rising, single point]

O=C(c1ccc(COc2ccccc2[N+](=O)[O-])o1)N1CCCCC1
AC50 [1]: 7.08 µM [rising, partial curve, poor fit]
AC50 [2]: 6.31 µM [rising, partial curve, poor fit]

Cc1nc2ccccc2c(=O)n1-c1ccc(NC(=O)c2cccc([N+](=O)[O-])c2)cc1
AC50 [2]: 3.16 µM [rising, single point]

COc1ccc(CNC(=O)CN(Cc2ccc(Cl)cc2)S(=O)(=O)c2ccccc2)cc1
AC50 [2]: 35.5 µM [rising, single point]

CNC(=O)CSc1nccn1Cc1ccc(Cl)cc1
AC50 [2]: 0.316 µM [falling, partial curve, poor fit]

CCOc1ccccc1Nc1nnc(SCc2ccc(C(=O)OC)o2)s1
AC50 [1]: 35.5 µM [rising, single point]

CCn1cc(Br)c(C(=O)Nc2ccc(F)c(Cl)c2)n1
AC50 [1]: 3.16 µM [rising, full curve, poor fit]
AC50 [2]: 5.01 µM [rising, partial curve, poor fit]

C=C1c2cccc(O)c2C(O)=C2C(=O)[C@@]3(O)C(O)=C(C(N)=O)C(=O)[C@@H](N(C)C)[C@@H]3[C@@H](O)[C@H]12
AC50 [1]: 0.355 µM [falling, single point]
AC50 [2]: 0.00316 µM [falling, full curve, poor fit]

CSc1ncc(C(=O)N2CCN(c3cc(C)ccc3C)CC2)c(C)n1
AC50 [2]: 0.0224 µM [falling, partial curve, poor fit]

O=C(COc1ccccc1Cl)Nc1ccc(C(=O)c2ccc(C(=O)O)cc2)cc1
AC50 [1]: 2 µM [falling, partial curve, poor fit]
AC50 [2]: 0.891 µM [falling, full curve, poor fit]

CC(C)Cn1c2c(c(O)c(C(=O)Nc3ncccc3O)c1=O)CCCC2
AC50 [2]: 17.8 µM [rising, partial curve, poor fit]

OC1(c2cccc(C(F)(F)F)c2)CCN(Cc2nnnn2CCc2ccccc2)CC1
AC50 [2]: 35.5 µM [rising, single point]

O=C1CC(c2ccco2)Cc2nc(N3CCN(Cc4ccc5c(c4)OCO5)CC3)ncc21 (configuration not stated)
AC50 [1]: 12.6 µM [rising, single point]
AC50 [2]: 22.4 µM [rising, single point]

CCC(=O)Nc1cc(C)c(NC(=O)c2ccco2)cn1
AC50 [2]: 5.62 µM [rising, single point]

Cc1ccc(/C=C2\CCCC3=C2NC(=S)NC3c2ccc(C)cc2)cc1 (configuration not stated)
AC50 [1]: 12.6 µM [rising, single point]
AC50 [2]: 25.1 µM [rising, partial curve]

CC(=O)NC(Cc1cccc(F)c1)C(=O)NC1CCN(C(=O)c2ccc(C)cc2)CC1 (configuration not stated)
AC50 [2]: 10 µM [falling, partial curve, poor fit]

O=C(CSc1nccn1C1CCCC1)Nc1ccc(C(F)(F)F)cc1
AC50 [2]: 0.126 µM [falling, full curve, poor fit]

O=C(NO)c1ccccc1O
AC50 [1]: 11.2 µM [rising, partial curve, poor fit]
AC50 [2]: 0.0178 µM [falling, full curve, poor fit]

O=C(c1ccccc1)c1ccc(C(=O)N2CCN(c3ccc(F)cc3)CC2)o1
AC50 [2]: 22.4 µM [rising, partial curve]

COc1ccc(NC(=O)Nc2ccccc2C(N)=O)cc1OC
AC50 [1]: 17.8 µM [rising, partial curve]
AC50 [2]: 35.5 µM [rising, single point]

CCn1c(=O)c([N+](=O)[O-])c(NCCc2ccc(OC)c(OC)c2)c2ccccc21
AC50 [1]: 2 µM [rising, full curve]
AC50 [2]: 7.94 µM [rising, partial curve]

O=C(Cc1ccc(Cl)cc1Cl)Nc1cccc(S(=O)(=O)Nc2ccccc2F)c1
AC50 [1]: 14.1 µM [rising, partial curve, poor fit]
AC50 [2]: 12.6 µM [rising, partial curve]

CCC(C(=O)Nc1ccncc1)c1ccccc1 (configuration not stated)
AC50 [1]: 10 µM [rising, partial curve]
AC50 [2]: 15.8 µM [rising, partial curve]

Cc1ccc(Cn2c(=O)c3c(nc4n3CCN4Cc3ccco3)n(C)c2=O)cc1
AC50 [2]: 17.8 µM [rising, single point]

CCC(C)NC(=O)CSc1nc2cc3c(cc2c(=O)n1CCCCCC(=O)NCc1ccc2c(c1)OCO2)OCO3 (configuration not stated)
AC50 [2]: 11.2 µM [falling, partial curve, poor fit]

Cc1cc(C)c2c(C)c(C(=O)NCc3ccncc3)oc2c1
AC50 [2]: 15.8 µM [rising, partial curve, poor fit]

Cc1ccc(CNC(=O)C2CCN(S(=O)(=O)c3ccc4[nH]c(=O)ccc4c3)CC2)cc1
AC50 [1]: 22.4 µM [falling, partial curve, poor fit]

O=C(Nc1cccc(S(=O)(=O)N2CCCC2)c1)c1cc(-c2ccccn2)nc2ccccc12
AC50 [1]: 0.0355 µM [falling, partial curve, poor fit]
AC50 [2]: 0.00316 µM [falling, full curve, poor fit]

Cc1cc(-c2csc(NC(=O)c3cccc(S(=O)(=O)N(C)C)c3)n2)c(C)n1-c1ccccc1
AC50 [1]: 10 µM [rising, partial curve]
AC50 [2]: 12.6 µM [rising, partial curve]

C#CCOC(=O)c1ccccc1C(=O)n1nnc2ccccc21
AC50 [2]: 3.55 µM [rising, single point]
